Some of the results follow. The main result of the screen is listed elsewhere. These columns were measured beside it and carry no call. The list favours compounds with an active or inconclusive main result. Potencies come from curve fits of mixed quality, noted in brackets.
Assay: qHTS Assay for Lipid Storage Modulators in Drosophila S3 Cells;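 on cell number change: cells counted by Cell Tracker Red CMTPX staining in the red channel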
Settings: BODIPY lipid droplet fluorescence, 18-24 h; for cell number change: measured here: cell count max response, cells fed with added oleic acid
Procedure, shortened: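 Laser-scanning cytometry quantifies lipid droplet accumulation (500–530 nm total intensity; droplet/cell object ratio) in oleic acid-fed (400 uM added) Drosophila S3 cells treated with a concentration series. 20 uM Triacsin C defined 100% inhibition.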

[1] = measured here: lipid fluorescence (Fed channel) AC50, cells fed with added oleic acid
[2] = measured here: cell number channel AC50, cells fed with added oleic acid

SMILES	cell number change [%]	AC50 [1]	AC50 [2]
C#CCNC(=O)C1=C[C@H](c2ccc(Br)cc2)C[C@H](OCCCCO)O1	2.16	6.51 µM [rising, partial curve, poor fit]	–
COc1ccc(OC)c(NC(=O)CN2CCN(C(=O)c3ccco3)CC2)c1	7.3	–	6.51 µM [rising, single point]
CNC(=O)c1[nH]cnc1C(=O)N[C@@H](CC(C)C)C(=O)OCc1ccccc1	-37.1	–	29.1 µM [falling, single point]
COc1cc(CNn2nnnc2N)ccc1OCC(=O)NC(C)(C)C	0.519	0.651 µM [falling, single point]	0.731 µM [falling, full curve, poor fit]
CCOC(=O)c1cccc(NC(=O)CCS(=O)(=O)c2ccc(Br)s2)c1	134	16.4 µM [rising, partial curve]	9.2 µM [rising, partial curve]
CCc1c(C#N)c(SCCC(=O)Nc2ccc(F)cc2)nc2c1C(=O)CC(C)(C)C2	-3.25	–	–
O=C(NC1CC2CCC(C1)N2Cc1ccco1)c1ccccc1 (stereo unspecified)	-25.3	9.2 µM [falling, partial curve, poor fit]	–
O=C(CSc1nc2ccc(NC(=O)C3CCCCC3)cc2s1)NCC1CCCO1 (stereo unspecified)	4.08	20.6 µM [rising, single point]	–
CC(=O)N1CCc2c(sc(NC(=O)CCS(=O)(=O)c3ccc(C)cc3)c2C(N)=O)C1	8.43	–	–
OCc1nc2ccccc2n1C/C=C/c1ccccc1	-36.3	–	29.1 µM [falling, single point]
CCOCCCNC(=O)c1cc(Sc2nnc(C)s2)nc2ccccc12	14	0.291 µM [rising, full curve, poor fit]	–
Cc1onc(-c2ccccc2)c1C(=O)OCC(=O)Nc1ccc2c(c1)OCO2	-13.8	2.31 µM [rising, single point]	–
CCc1cc(=O)oc2cc(C)cc(OCC(=O)NCc3ccccn3)c12	-6.23	–	0.00517 µM [falling, full curve, poor fit]
COc1ccc(OC)c(C2NC(=O)N(C)C(C)=C2C(=O)OCc2ccccc2)c1 (stereo unspecified)	11.4	0.259 µM [falling, full curve, poor fit]	–
O=C(NC(CC(=O)N1CCN(c2ccccc2)CC1)c1ccccc1)c1ccccc1Cl (stereo unspecified)	–	3.26 µM [rising, single point]	–
CCNC(=O)c1cc(Br)ccc1Cl	-76	–	23.1 µM [falling, partial curve, poor fit]
O=C(CCl)N(Cc1cc(=O)[nH]c2ccccc12)c1ccccc1	9.72	0.58 µM [rising, single point]	–
Cc1ccc(-c2[nH]ncc2/C=N/n2c(COc3ccccc3C)nc3ccccc3c2=O)cc1	-68.4	–	29.1 µM [falling, single point]
CCOc1ccc(S(=O)(=O)N2CCC(C(=O)NC3CC3)CC2)cc1C	25.2	0.206 µM [falling, single point]	–
CC1(C)C(C(=O)O)N2C(=O)C(NC(=O)Cc3ccccc3)C2S1=O (stereo unspecified)	27.7	9.2 µM [falling, single point]	–

SMILES	cell number change [%]	AC50 [1]	AC50 [2]
COc1ccc(OC)c(S(=O)(=O)N2CCCC(C(=O)NCc3ccco3)C2)c1 (stereo unspecified)	16	6.51 µM [falling, single point]	–
O=C(CO/N=C\c1ccccc1)Nc1ccccc1C(=O)N1CCOCC1	-17.4	14.6 µM [falling, partial curve]	–
CCOc1ccc(N(CC(=O)Nc2ccc(C)c(Cl)c2)S(C)(=O)=O)cc1	3.88	–	–
CC1Sc2ccc(S(=O)(=O)N3CCC(C(=O)NCc4ccccc4)CC3)cc2NC1=O (stereo unspecified)	12.5	29.1 µM [falling, single point]	–
CC(C)Cc1nnc(NC(=O)C2CC(=O)N(Cc3ccccc3)C2)s1 (stereo unspecified)	-1.74	1.03 µM [rising, full curve]	–
N#Cc1nc(COc2ccc(F)cc2)oc1NCCCn1ccnc1	8.26	0.58 µM [rising, full curve]	0.291 µM [rising, full curve, poor fit]
Oc1[nH]c2ccccc2c1OCc1ccncc1	-33.5	1.16 µM [falling, full curve]	29.1 µM [falling, single point]
O=C(O)c1ccnc(SCC(=O)c2ccccc2)c1	–	0.206 µM [falling, full curve, poor fit]	–
CCOC(=O)CSc1c(-c2ccccc2)c2cc(Cl)ccc2[nH]c1=O	-6.79	–	–
O=C(N/N=C/c1cccnc1)/C(=C\c1cccs1)NC(=O)c1ccccc1	132	16.4 µM [rising, single point]	29.1 µM [rising, single point]
COc1ccc2c(C(=O)CCl)c[nH]c2c1	-26.1	9.2 µM [falling, partial curve]	–
CCCCN(C(=O)CCC(=O)Nc1cc(C)on1)C(C(=O)NC1CCCC1)c1ccc(OCC)cc1 (stereo unspecified)	-0.952	–	–
COc1cc(NS(=O)(=O)c2ccc(NC(=O)COc3ccc(C)cc3C)cc2)nc(OC)n1	-13.2	4.11 µM [falling, single point]	–
CC(C)(C)NC(=O)NC(=O)CN1CCN(C(c2ccccc2)c2ccccc2)CC1	13	6.51 µM [rising, single point]	4.11 µM [rising, single point]
COC(=O)c1ccc2c(=O)n(CCCCCC(=O)NCc3ccc4c(c3)OCO4)c(=O)[nH]c2c1	5.83	–	–
Oc1cccc(/C=N/NC(=S)NCCN2CCOCC2)c1O	64.3	18.4 µM [rising, single point]	20.6 µM [rising, single point]
Cc1ccc(CN2[C@@H]3c4ccccc4C[C@@H]3OCCS2(=O)=O)cc1	-2.69	0.651 µM [falling, single point]	–
CCc1nc2c(n1O)CCc1nonc1-2	5.22	20.6 µM [falling, partial curve]	–
NS(=O)(=O)c1ccc(NC(=O)c2ccc(S(=O)(=O)N3CCc4ccccc43)cc2)cc1	-6.85	0.116 µM [falling, full curve, poor fit]	0.116 µM [falling, full curve, poor fit]
Cc1ccc(C(=O)N/C(=C\c2ccc(-c3cccc([N+](=O)[O-])c3)o2)C(=O)NCCCN(C)C)cc1	-4.05	1.46 µM [rising, partial curve]	–

SMILES	cell number change [%]	AC50 [1]	AC50 [2]
COC(=O)Cc1ccc(N(Cc2ccccc2F)S(=O)(=O)c2ccc(C)cc2)cc1	20.5	4.11 µM [rising, full curve]	–
Cc1ccc(C)c(N(CC(=O)NC2CCCC2)C(=O)CCC(=O)Nc2cc(C)on2)c1	28.2	–	–
O=C(CN1CCC(NC(=O)Nc2ccccc2)CC1)Nc1ccccc1F	-2.02	7.31 µM [rising, partial curve]	–
COc1ccccc1N1CCN(CC(=O)Nc2ccc(Cl)c(C(F)(F)F)c2)CC1	-41.4	20.6 µM [falling, partial curve]	16.4 µM [falling, partial curve]
O=C(CN1C(=O)NC2(CCCCCC2)C1=O)N1CCN(c2ccccc2)CC1	-2.51	0.082 µM [falling, full curve, poor fit]	–
CN(c1ccccc1)S(=O)(=O)c1cccc(C(=O)Nc2nccs2)c1	-46.8	6.51 µM [rising, partial curve, poor fit]	20.6 µM [falling, single point]
NC(=O)c1ccccc1NC(=O)/C=C/C(=O)O	-14.3	0.731 µM [falling, full curve]	0.164 µM [falling, full curve, poor fit]
COc1cc(C(=O)NC(c2ccccc2)c2ccccc2)cc(OC)c1C	12.4	–	–
CCN(CCN(C)C)C(=O)Cn1ncc2c1-c1cc(C)ccc1OC2	–	0.00461 µM [rising, full curve, poor fit]	–
CCOC(=O)CC1C(=O)NCCN1c1nc2ccc(C)cn2c(=O)c1/C=C1\SC(=S)N(CC(C)C)C1=O (stereo unspecified)	-56.6	4.61 µM [falling, full curve]	29.1 µM [falling, single point]
COc1ccccc1C(=O)Nc1nnc(C)s1	42.3	2.06 µM [rising, partial curve]	–
O=C(c1sc2cccc(Cl)c2c1Cl)N1CCN(CCc2ccccn2)CC1	27.4	20.6 µM [rising, single point]	–
CC1CCN(S(=O)(=O)c2ccccc2[N+](=O)[O-])CC1	-5.02	6.51 µM [falling, single point]	–
Cn1c(=O)[nH]c(=O)c2c1nc(Br)n2Cc1cccc(Br)c1	37.6	29.1 µM [falling, single point]	0.0116 µM [rising, full curve, poor fit]
COc1ccc(NC(C)=O)cc1NC(=O)CSc1nnc(-c2cccnc2)n1C	10	0.58 µM [rising, full curve]	–
COc1ccc(C2=NN(C(=O)c3cccs3)C(c3ccccc3OC)C2)cc1OC (stereo unspecified)	13.3	–	–
Oc1cncc(-c2cccnc2)c1	-0.678	4.61 µM [rising, partial curve, poor fit]	–
COc1ccc(CC(=O)OCC(=O)N2CCCc3ccccc32)cc1OC	–	6.51 µM [rising, single point]	–

Structural class: the compounds so far with a Cl atom (eight)
SMILES	cell number change [%]	AC50 [1]	AC50 [2]
O=C(NC(CC(=O)N1CCN(c2ccccc2)CC1)c1ccccc1)c1ccccc1Cl (stereo unspecified)	–	3.26 µM [rising, single point]	–
CCNC(=O)c1cc(Br)ccc1Cl	-76	–	23.1 µM [falling, partial curve, poor fit]
O=C(CCl)N(Cc1cc(=O)[nH]c2ccccc12)c1ccccc1	9.72	0.58 µM [rising, single point]	–
CCOc1ccc(N(CC(=O)Nc2ccc(C)c(Cl)c2)S(C)(=O)=O)cc1	3.88	–	–
CCOC(=O)CSc1c(-c2ccccc2)c2cc(Cl)ccc2[nH]c1=O	-6.79	–	–
COc1ccc2c(C(=O)CCl)c[nH]c2c1	-26.1	9.2 µM [falling, partial curve]	–
COc1ccccc1N1CCN(CC(=O)Nc2ccc(Cl)c(C(F)(F)F)c2)CC1	-41.4	20.6 µM [falling, partial curve]	16.4 µM [falling, partial curve]
O=C(c1sc2cccc(Cl)c2c1Cl)N1CCN(CCc2ccccn2)CC1	27.4	20.6 µM [rising, single point]	–

Reformatted as labelled records: entries from further up
Cc1ccc(C)c(N(CC(=O)NC2CCCC2)C(=O)CCC(=O)Nc2cc(C)on2)c1
  cell number change [%]: 28.2
COc1ccc(CC(=O)OCC(=O)N2CCCc3ccccc32)cc1OC
  AC50 [1]: 6.51 µM [rising, single point]

Source: PubChem BioAssay AID2685 (National Center for Advancing Translational Sciences (NCATS), 2010)
